# Measurements reported in PubChem BioAssay AID1259327 (Drosophila RNAi Screening Center, 2017).
# Test: 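Data from controls in screens of zinc and manganese toxicity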
# System: Drosophila S2R+ cells
# Knock-down reagent: long dsRNA against Drosophila genes
# Duration: 5 days (water added on day 4, read one day later)
# Challenge: water added as vehicle, no metal, one day before read-out
# Measured: 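Luciferase ATP signal per well, normalised to plate mean, duplicate average converted to z-score across plates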
# Scale: ATP z-score: higher = more total ATP than typical wells; ATP luminescence: higher = more total ATP
# Call rule: 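Called active when the ATP z-score exceeds 1.5 or falls below -1.5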
# Meaning of the calls: active = hit: ATP up or down; inactive = no clear ATP change
# Here is one part, drawn at random, of about 3,100 reagents tested. 378 of them (12%) count as active. 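Hits include both directions; z-score sign shows ATP rise or fall; raw luminescence values are not plate-normalised.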 Names joined by + are all predicted targets of the reagent. No sequences are given here. The record does not give: the amount of reagent.
The first 3 records, to show the layout:
target,DRSC id,"ATP z-score, duplicate mean","ATP luminescence, replicate 1 (RLU)","ATP luminescence, replicate 2 (RLU)",outcome
Tsp68C (Tetraspanin 68C),DRSC09295,-0.135,6.06e5,7.65e5,inactive
Tsp68C (Tetraspanin 68C),DRSC28942,0.353,9.65e5,7.75e5,inactive
anchor,DRSC10861,1.3,1.01e6,7.27e5,inactive

The list itself, repeating the preview:
target,DRSC id,"ATP z-score, duplicate mean","ATP luminescence, replicate 1 (RLU)","ATP luminescence, replicate 2 (RLU)",outcome
Tsp68C (Tetraspanin 68C),DRSC09295,-0.135,6.06e5,7.65e5,inactive
Tsp68C (Tetraspanin 68C),DRSC28942,0.353,9.65e5,7.75e5,inactive
anchor,DRSC10861,1.3,1.01e6,7.27e5,inactive
SecCl (Secretory chloride channel),DRSC10887,0.0516,8.16e5,9.85e5,inactive
SecCl (Secretory chloride channel),DRSC39894,-1.54,4.33e5,4.75e5,active
CG31717,DRSC01121,-0.463,6.87e5,6.98e5,inactive
CG33673,DRSC00084,0.683,8.69e5,7.61e5,inactive
CG33673,DRSC38938,1.9,6.41e5,8.41e5,active
HisT (Histamine transporter),DRSC05051,0.318,7.17e5,8.41e5,inactive
HisT (Histamine transporter),DRSC06405,-0.0523,6.99e5,7.53e5,inactive
Asph (Aspartyl beta-hydroxylase),DRSC06783,0.809,6.60e5,7.26e5,inactive
Asph (Aspartyl beta-hydroxylase),DRSC29507,-0.241,8.00e5,7.87e5,inactive
spin (spinster),DRSC22271,0.245,8.47e5,9.15e5,inactive
spin (spinster),DRSC39628,-0.685,4.50e5,3.86e5,inactive
CG30345,DRSC05144,-0.666,6.27e5,7.16e5,inactive
CG30345,DRSC39521,0.0256,4.62e5,4.47e5,inactive
CG34450,DRSC17822,0.41,6.84e5,8.10e5,inactive
CG34450,DRSC25085,1.5,1.13e6,9.45e5,active
PK1-R (Pyrokinin 1 receptor),DRSC16577,-0.985,2.29e5,7.22e5,inactive
lili (lilipod),DRSC14143,-0.268,6.65e5,6.90e5,inactive
lili (lilipod),DRSC29667,0.815,1.00e6,8.48e5,inactive
Smvt (Sodium-dependent multivitamin transporter),DRSC15426,-1.69,5.08e5,8.96e5,active
Smvt (Sodium-dependent multivitamin transporter),DRSC39637,-0.0893,5.05e5,4.11e5,inactive
Or24a (Odorant receptor 24a),DRSC00768,0.685,7.74e5,8.23e5,inactive
Ntl (Neurotransmitter transporter-like),DRSC03003,1.21,8.76e5,8.33e5,inactive
Ntl (Neurotransmitter transporter-like),DRSC28007,1.53,9.42e5,9.59e5,active
ppk9 (pickpocket 9),DRSC04134,0.192,7.74e5,7.20e5,inactive
ppk9 (pickpocket 9),DRSC04135,-0.299,8.79e5,8.36e5,inactive
Ir76b (Ionotropic receptor 76b),DRSC10831,1.1,1.14e6,9.44e5,inactive
Ir76b (Ionotropic receptor 76b),DRSC39663,0.261,4.31e5,5.37e5,inactive
Gfrl (Glial cell line-derived neurotrophic family receptor-like),DRSC15196,-0.0509,3.23e5,6.88e5,inactive
Gfrl (Glial cell line-derived neurotrophic family receptor-like),DRSC25385,0.268,9.03e5,8.64e5,inactive
GPHR (Golgi pH Regulator),DRSC07075,1.95,7.74e5,8.18e5,active
GPHR (Golgi pH Regulator),DRSC39570,0.934,4.96e5,5.63e5,inactive
Tsp42Ek (Tetraspanin 42Ek),DRSC06187,-0.677,5.64e5,5.52e5,inactive
Tsp42Ek (Tetraspanin 42Ek),DRSC39861,0.327,5.72e5,6.57e5,inactive
Eglp1 (Entomoglyceroporin 1),DRSC04502,-0.027,7.24e5,7.32e5,inactive
laza (lazaro),DRSC23330,-0.627,5.72e5,4.80e5,inactive
laza (lazaro),DRSC29129,-0.043,8.86e5,7.55e5,inactive
CG17752,DRSC15262,-0.23,2.72e5,7.80e5,inactive
CG17752,DRSC26265,0.841,9.63e5,9.46e5,inactive
CG31693,DRSC03674,-0.502,6.45e5,7.34e5,inactive
CG31693,DRSC39586,-0.0176,3.88e5,5.43e5,inactive
CG32263,DRSC22431,0.206,8.84e5,8.68e5,inactive
CG32263,DRSC29009,0.239,8.60e5,8.43e5,inactive
sip3 (septin interacting protein 3),DRSC29484,0.327,7.79e5,9.37e5,inactive
sip3 (septin interacting protein 3),DRSC39765,-1.47,3.93e5,3.58e5,inactive
pHCl-1 (pH-sensitive chloride channel 1),DRSC09401,3.63,9.77e5,7.61e5,active
pHCl-1 (pH-sensitive chloride channel 1),DRSC09991,-0.631,6.50e5,6.99e5,inactive
pHCl-1 (pH-sensitive chloride channel 1),DRSC10589,-0.162,1.01e6,7.50e5,inactive
hbs (hibris),DRSC07627,0.569,5.68e5,7.75e5,inactive
hbs (hibris),DRSC39446,-0.785,4.12e5,3.91e5,inactive
CG42594,DRSC18408,0.041,6.06e5,1.02e6,inactive
CG42594,DRSC28979,-0.128,7.08e5,8.97e5,inactive
hbt + CG43779,DRSC23270,0.183,5.65e5,6.26e5,inactive
hbt + CG43779,DRSC39693,0.782,5.77e5,4.57e5,inactive
tty (tweety),DRSC20588,0.194,7.25e5,7.26e5,inactive
tty (tweety),DRSC26868,2.58,1.01e6,1.14e6,active
bark (bark beetle),DRSC00635,-0.402,7.24e5,6.43e5,inactive
bark (bark beetle),DRSC27011,1.1,1.14e6,9.00e5,inactive
PGRP-LC (Peptidoglycan recognition protein LC),DRSC08980,-0.145,7.20e5,7.33e5,inactive
PGRP-LC (Peptidoglycan recognition protein LC),DRSC10416,-0.655,8.43e5,7.78e5,inactive
PGRP-LC (Peptidoglycan recognition protein LC),DRSC10417,-0.291,8.88e5,8.29e5,inactive
PGRP-LC (Peptidoglycan recognition protein LC),DRSC28556,0.904,9.93e5,8.76e5,inactive
Indy-2 + CG33934,DRSC15685,-0.852,6.58e5,7.03e5,inactive
Indy-2 + CG33934,DRSC15686,-0.612,2.69e5,2.77e5,inactive
Dg (Dystroglycan),DRSC06718,-1.36,4.62e5,5.31e5,inactive
Cln7,DRSC11005,0.723,8.21e5,7.95e5,inactive
